# Hit rate of the full screen: of about 200,000 compounds, about 25 (0.01%) were called active. Inconclusive results, whose numbers are uncertain, are shown with a selection of clear calls. Calls come from the whole dose curve; as a rule, active = well fitted inhibition curve with a large enough effect in the signal ratio, with a control signal flat (not every such curve was filed as active); inconclusive = small, poorly fitted or top-dose-only effect, or effect the other way, or a change in a side signal; inactive = flat fitted curve, though single readings scatter; the % refers to the signal ratio. Potencies beside an inconclusive call are fits to weak or partial responses and may not hold up.
# Experiment: qHTS Assay for Modulators of Lamin A Splicing
# Settings: HeLa LMNA splicing GFP/RFP minigene ratio, 48 h; ratio change, negative = inhibition: at 46.1 µM (top of the series) unless noted
# In short: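 S3 HeLa stable clones carrying a lamin A-EGFP splicing minigene plus DsRed2 were seeded at 600 cells/well in Opti-MEM with 2% FBS, pin-dosed and incubated 48 h at 37°C. Acumen cytometry (488 nm) gave the GFP/RFP total-intensity ratio.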
# % is set by controls: 0 for no effect and ±100 for the full control effect; potency is the fitted concentration of half-maximal effect.
SMILES,"ratio change, negative = inhibition",Potency
COc1ccc(CN2C(=O)C3C4C=CC(C4)C3C2=O)cc1 (centres undefined),inactive: 4.16%,–
Cc1cccc(NC(=S)NCc2ccc3[nH]c4c(c3c2)CCCC4)c1,–,"inconclusive: 35.5 µM [fluorescent, single point]"
COc1ccc(C(N)=S)c(OC)c1,inactive: 11.2%,–
O=c1nc2ccccc2c2n1CC(CN1CCN(C(c3ccccc3)c3ccccc3)CC1)N2 (centres undefined),inconclusive: 8.82% [at 46 µM],–
CCC1(CC)Cc2ccccc2-c2nc(CN3CCOCC3)[nH]c(=O)c21,inconclusive: 19.6%,–
Cn1c(=O)n(C)c2cc(NS(=O)(=O)c3ccc(Cl)s3)ccc21,inconclusive: -28.4% [at 46 µM],–
O=C(Nc1ccc(-c2noc(CCc3ccccc3)n2)cc1)c1ccco1,inactive: -14.2%,–
COc1ccccc1N1CCN(C(=O)c2ccc3[nH]c4c(c3c2)CC(C)CC4)CC1 (centres undefined),inconclusive: -41.5%,–
C[N+]1(CCCOC(=O)C2(c3ccccc3)CCCC2)CCOCC1,inconclusive: 9.78%,–
CC1=NN(C(N)=S)C(=O)C1N=Nc1c(C)cc(C)cc1C (centres undefined),inconclusive: 22.6%,–
Cc1ccc(NC(=O)/C(Cl)=C\c2ccccc2)cc1,inconclusive: -37.5%,–
COc1cccc(CNC(=O)C(C)n2c(=O)cc(-c3ccccc3)c3c(C)nn(C)c32)c1 (centres undefined),inactive: 2.05% [at 46 µM],–
Cc1nc2ccn(Cc3ccco3)c(=O)c2cc1C(=O)N1CCN(c2ccc(F)cc2)CC1,inconclusive: 14.5% [at 46 µM],–
CCN1CCN(C(=O)Nc2cccc(C(F)(F)F)c2)CC1,inactive: 15.1%,–
COc1ccc(S(=O)(=O)N2CCCN(S(=O)(=O)c3ccc(OC)c(C)c3)CC2)cc1C,–,"inconclusive: 12.6 µM [falling, partial curve]"
O=c1cc(NCCc2ccccc2)c2ccccc2o1,inactive: -2.31% [at 46 µM],–
Cc1ccc(S(=O)(=O)CC#CCOC(=O)c2ccc([N+](=O)[O-])cc2)cc1,–,"inconclusive: 35.5 µM [cytotoxic, partial curve]"
O=C(CN1C(=O)CCS(=O)(=O)c2ccccc21)Nc1ccc2c(c1)OCCO2,inactive: -12.3%,–
CCOc1cccc(NC(=O)/C(C#N)=C\c2cccnc2)c1,inactive: 28.3% [at 46 µM],–
CCOC(=O)COc1ccc2ccccc2c1/C=C/[N+](=O)[O-],–,"inconclusive: 11.2 µM [falling, partial curve]"
CC(=O)c1sc(-c2cccc(Cl)c2)nc1C,inconclusive: -18.8% [at 46 µM],–
Cc1cc(Br)ccc1NC(=O)c1sc2nc3n(c(=O)c2c1C)CCCC3,inactive: 12% [at 46 µM],–

# 2 records drawn at random from the list so far, as already listed:
SMILES,"ratio change, negative = inhibition",Potency
COc1ccc(CN2C(=O)C3C4C=CC(C4)C3C2=O)cc1 (centres undefined),inactive: 4.16%,–
Cc1ccc(NC(=O)/C(Cl)=C\c2ccccc2)cc1,inconclusive: -37.5%,–

# More compounds

SMILES,"ratio change, negative = inhibition",Potency
COc1cccc(NC(=O)CN2CCN(S(=O)(=O)c3ccc(C(C)C)cc3)CC2)c1,inactive: -13.2%,–
Cc1cccc(CN2CCCC(C(=O)N3CCc4ccccc4C3)C2)c1 (centres undefined),inactive: 3.66%,–
C/C(=N\NC(=O)CNc1ccccc1)c1ccccc1,inconclusive: -3.01% [at 46 µM],–
COc1ccc(/C=N/NC(=O)c2ccoc2C)cc1O,inconclusive: -30.4%,–
CC(=O)O[C@]1(C(C)=O)CC[C@H]2[C@@H]3C[C@H](C)C4=CC(=O)CC[C@]4(C)[C@H]3CC[C@@]21C,–,"inconclusive: 35.5 µM [fluorescent, single point]"
C=CCN1C(=O)NC(c2ccccc2)(C(F)(F)F)S/C1=C(\C#N)c1nnc(N2CCOCC2)n1-c1ccccc1 (centres undefined),inactive: -21.1%,–
CCN(CC(=O)NC1CCS(=O)(=O)C1)S(=O)(=O)c1cccc(C(C)=O)c1 (centres undefined),inconclusive: -9.42% [at 46 µM],–
CC1CCN(Cc2c(C#N)c3ccccc3n2C)CC1,inactive: 2.47%,–
CCOC(=O)c1[nH]cnc1C(=O)Nc1ccc(F)cc1,inconclusive: -5.91% [at 46 µM],–
COc1ccccc1CC(=O)N1CCN(c2cccc(C(F)(F)F)c2)CC1,–,"inconclusive: 8.91 µM [fluorescent, partial curve]"
COC(=O)N1CCN(c2ccc(Cl)c(Cl)c2)CC1,inactive: -23.8%,–
N#Cc1ccc(CSc2nnc(-c3ccccc3)n2Cc2ccco2)cc1,inconclusive: 41.2%,–
c1ccc(CN2CCN(c3nc(-c4ccccn4)nc4ccccc34)CC2)cc1,inconclusive: -25.8%,–
Cc1ccc(/C=N/N2CCN(Cc3ccccc3)CC2)o1,inactive: -1.83%,–
CC1(C)Cc2c(sc3c2c(=N)n(Cc2ccco2)c(=O)n3CC(=O)Nc2ccc(Cl)cc2)CO1,inactive: -10.8%,–
CCC(=O)Nc1cc(ON=C(C)C)cc([N+](=O)[O-])c1,inconclusive: 5.75%,–
Cc1nc(NS(=O)(=O)c2ccccc2)sc1C(=O)N/N=C/c1ccccc1,inconclusive: 23.4% [at 46 µM],–
CC1Cn2cc(C(=O)Nc3cccc(C(F)(F)F)c3)c(=O)c3c(Cl)ccc(c32)O1 (centres undefined),inactive: 1.62% [at 46 µM],–
COc1ccc(Nc2ccc(S(=O)(=O)N3CCCCC3)cc2[N+](=O)[O-])cc1Cl,inconclusive: -10.8%,–
COC(=O)c1ccccc1OCC(=O)NC1CCCCC1,inconclusive: -30.2%,–
O=C1c2ccccc2C(=O)c2c1ncn2-c1ccccc1,–,"inconclusive: 35.5 µM [falling, single point]"
Cc1ccc(-c2noc(CCC(=O)NC3CCCc4ccccc43)n2)cc1 (centres undefined),inconclusive: 21.7%,–
